{"source": "patent US8614188B2", "about": "(University of Massachusetts, priority 2006, dated 2013)", "assay": "peptide made by a vendor", "settings": "whole synthesis, HPLC", "data": [{"substance": "H-GNLVAICLGAV-OH", "values": [{"measurement": "purity (crude or final not stated)", "value": 90, "unit": "%"}]}]}
